# Experimental data: PubChem BioAssay AID504834 (National Center for Advancing Translational Sciences (NCATS), 2011)
# In all, about 320,000 compounds went through this assay and about 22,000 (6.9%) were called active. The shares of active, inactive and inconclusive entries below differ from those in the screen. The call rests on the fitted dose curve; in most records, active means well fitted inhibition curve with a large enough effect; inconclusive means small, poorly fitted or top-dose-only effect, or another doubt; inactive means no such curve, though single readings can be large or run the other way. Where the call is inconclusive, the potency comes from a doubtful curve fit.
# Assay: Primary qHTS for delayed death inhibitors of the malarial parasite plastid, 96 hour incubation
# Conditions: P. falciparum luciferase reporter growth; series mostly up to 28.7 µM
# Method in brief: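 Delayed-death screen, second-generation endpoint: infected erythrocytes, 2% hematocrit, 0.05% parasitemia final; 96 hours at 37 C, 5% CO2; luciferase detection reagent; luminescence decrease equals reduced growth.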
# Potency means the concentration at half of the fitted maximal effect.
row,SMILES,Potency
1,O=C(O)CCn1c(SCc2cccc3ccccc23)nc2ccccc21,"inconclusive: 8.28 µM [inhibitor, partial curve]"
2,CC(=O)Oc1ccc(/C=C2\N=C(C3CCCCC3)OC2=O)cc1,"inconclusive: 2.94 µM [inhibitor, full curve, poor fit]"
3,COc1ccc(-c2cc3ncc(-c4ccccc4)c(N)n3n2)cc1,inactive
4,COc1ccc(N2CCN(C(=O)CN3C(=O)NC4(CCCCCC4)C3=O)CC2)cc1,"inconclusive: 18.5 µM [inhibitor, single point]"
5,CCOc1ccc(-n2c(-c3ccccc3)c[nH]c2=S)cc1,"inconclusive: 18.5 µM [inhibitor, single point]"
6,O=S(=O)(O)c1ccc2nc(-c3ccccc3)[nH]c2c1,inactive
7,CCN(CC)CCNC(=O)c1ccc(Cl)c(S(=O)(=O)N2CCCCCC2)c1,"inconclusive: 13.1 µM [inhibitor, partial curve, poor fit]"
8,CC(=O)Nc1ccc(Nc2cc(C)c3ccccc3n2)cc1,"inconclusive: 18.5 µM [inhibitor, single point]"
9,COc1ccccc1NC(=O)c1ccc(NC(=O)CSc2ncn[nH]2)cc1,inactive
10,C[C@H](NC(=O)c1nc[nH]c1C(=O)NC(c1ccccc1)c1ccccc1)C(=O)OCc1ccccc1,"inconclusive: 11.7 µM [inhibitor, single point]"
11,c1csc(-c2nnc(COc3ncnc4sccc34)o2)c1,"inconclusive: 10.4 µM [inhibitor, single point]"
12,COc1ccccc1CNC(=O)CN(CCc1ccccc1)S(C)(=O)=O,"inconclusive: 10.4 µM [inhibitor, single point]"
13,CCc1ccc(-c2cc(C(=O)N3N=C(C(F)F)CC3(O)C(F)F)c3ccccc3n2)cc1 (centres undefined),"inconclusive: 18.5 µM [inhibitor, single point]"
14,Cc1ccc2[nH]c3c(c2c1)CN(C(=O)CN1C[C@H]2C[C@@H](C1)c1cccc(=O)n1C2)CC3,"inconclusive: 10.4 µM [inhibitor, single point]"
15,CC(C)=CC(=O)OCC(=O)Nc1ccccc1Cl,"inconclusive: 0.0185 µM [inhibitor, full curve]"
16,CC(C)NC[C@H](O)c1cc(O)cc(O)c1,inactive
17,CN(C)S(=O)(=O)c1ccc(C(=O)Nc2ccccc2C(=O)NCCCN2CCOCC2)cc1,"inconclusive: 18.5 µM [inhibitor, single point]"
18,C=CCOc1cccc(C2/C(=C(\O)c3ccc4c(c3)OCCO4)C(=O)C(=O)N2Cc2cccnc2)c1 (centres undefined),"inconclusive: 8.28 µM [inhibitor, partial curve, poor fit]"
19,O=C(NC1CCCCC1)c1cc2ccccc2cc1O,active: 1.85 µM
20,CC(C(=O)NCc1cccs1)n1cccc1 (centres undefined),"inconclusive: 18.5 µM [inhibitor, single point]"
21,Cc1ccc(-c2nc3cccnc3o2)cc1NC(=O)COc1ccc(C(C)(C)C)cc1,"inconclusive: 0.0828 µM [inhibitor, full curve]"
22,O=C1c2ccccc2S(=O)(=O)N1Cc1cccc(S(=O)(=O)N2CCOCC2)c1,"inconclusive: 18.5 µM [inhibitor, single point]"

# Random excerpt: 2 records from the list.
row,SMILES,Potency
5,CCOc1ccc(-n2c(-c3ccccc3)c[nH]c2=S)cc1,"inconclusive: 18.5 µM [inhibitor, single point]"
20,CC(C(=O)NCc1cccs1)n1cccc1 (centres undefined),"inconclusive: 18.5 µM [inhibitor, single point]"

# (next part)

row,SMILES,Potency
1,COc1ccc(C(=O)N2CCN(c3cccc(Cl)c3)CC2)cc1,inactive
2,Cc1noc(C(=O)N2CC3(C)CC2CC(C)(C)C3)c1Cl (centres undefined),"inconclusive: 14.7 µM [inhibitor, single point]"
3,C[N+]1(C)CCN(c2ccccc2)CC1,"inconclusive: 9.28 µM [inhibitor, single point]"
4,O=C(COC(=O)c1c(Cl)cccc1Cl)Nc1cccc(S(=O)(=O)NC2=NCCCCC2)c1,"inconclusive: 1.31 µM [inhibitor, partial curve, poor fit]"
5,COc1ccccc1C(c1nnnn1Cc1ccco1)N1CCN(c2cccc(C)c2C)CC1 (centres undefined),"inconclusive: 0.0586 µM [inhibitor, full curve, poor fit]"
6,CCn1nc(C)cc1C(=O)N1CCCC(N2CCN(Cc3ccc4c(c3)OCO4)CC2)C1 (centres undefined),inactive
7,O=C(Nc1nnc(-c2ccc3c(c2)CCCC3)o1)c1c(F)cccc1F,inactive
8,Cc1cc2cc3c(cc2nc1SCC(=O)N1CCN(C(=O)c2ccco2)CC1)OCO3,"inconclusive: 8.28 µM [inhibitor, partial curve, poor fit]"
9,NS(=O)(=O)c1ccc(CCNC(=O)NC23CC4CC(CC(C4)C2)C3)cc1,inactive
10,Cc1cc(C)n(C(=O)Cn2nc([N+](=O)[O-])c(Br)c2C)n1,inactive
11,Cn1cc(SCC(=O)Nc2ccc3c(c2)OCCO3)c2ccccc21,inactive
12,CCOC(=O)NC1(C(F)(F)F)C(=O)N(Cc2ccccc2)C2=C1C(=O)CC(C)(C)C2 (centres undefined),"inconclusive: 4.15 µM [inhibitor, single point]"
13,CCCCCSc1nnc(-c2cc(Br)ccc2N)c(=O)[nH]1,"inconclusive: 14.7 µM [inhibitor, single point]"
14,CC(=O)N1CCN(S(=O)(=O)c2ccc(F)c(Cl)c2)CC1,inactive
15,COC(=O)c1ccc(CN2CCC(CO)(Cc3ccccc3Cl)CC2)cc1,"inconclusive: 18.5 µM [inhibitor, single point]"
16,CCc1cccc(NC(=O)CCC(=O)O)c1,inactive
17,COC(=O)c1cc(C(=O)OCC(=O)NCc2ccc3c(c2)OCO3)cc([N+](=O)[O-])c1,"inconclusive: 20.8 µM [inhibitor, partial curve, poor fit]"
18,Nc1c(Cl)cnc(C(Cl)(Cl)Cl)c1Cl,"inconclusive: 16.5 µM [inhibitor, single point]"
19,COCCCNC(=O)c1nc2c(nnn2Cc2cc(C)ccc2C)c(=O)[nH]1,"inconclusive: 16.5 µM [inhibitor, single point]"
20,Cc1sc2nc(C(C)(C)C)oc(=O)c2c1C,"inconclusive: 0.0029 µM [inhibitor, full curve, poor fit]"
21,CSc1ccccc1OCc1cc(C(=O)NCc2cnc(C)cn2)no1,inactive
22,Cc1ccc(NC(=O)c2ccccc2NS(=O)(=O)c2ccc(Cl)s2)cc1,"inconclusive: 18.5 µM [inhibitor, single point]"
